Test results as given in publication PMC12368045.
Results are given in words; binding and its absence hold for the method and conditions named. In cells and extracts the contact can be indirect. A result given as binding can be weak or reduced; the word gives no strength.

Amino acid sequences for entries named in this document (tags omitted). A change or cut given only in a name is not applied to a line headed by its entry.
UniProt Q9JJ00: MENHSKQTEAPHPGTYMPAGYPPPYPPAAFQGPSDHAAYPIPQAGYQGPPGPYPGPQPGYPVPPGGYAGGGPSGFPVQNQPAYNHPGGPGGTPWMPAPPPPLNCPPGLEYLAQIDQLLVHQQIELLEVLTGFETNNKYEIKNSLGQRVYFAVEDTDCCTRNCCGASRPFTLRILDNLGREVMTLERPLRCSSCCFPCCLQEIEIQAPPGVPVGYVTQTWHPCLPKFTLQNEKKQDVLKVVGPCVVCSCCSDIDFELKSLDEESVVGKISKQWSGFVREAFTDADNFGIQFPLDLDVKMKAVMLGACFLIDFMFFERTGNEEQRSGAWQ
UniProt Q8CFI0: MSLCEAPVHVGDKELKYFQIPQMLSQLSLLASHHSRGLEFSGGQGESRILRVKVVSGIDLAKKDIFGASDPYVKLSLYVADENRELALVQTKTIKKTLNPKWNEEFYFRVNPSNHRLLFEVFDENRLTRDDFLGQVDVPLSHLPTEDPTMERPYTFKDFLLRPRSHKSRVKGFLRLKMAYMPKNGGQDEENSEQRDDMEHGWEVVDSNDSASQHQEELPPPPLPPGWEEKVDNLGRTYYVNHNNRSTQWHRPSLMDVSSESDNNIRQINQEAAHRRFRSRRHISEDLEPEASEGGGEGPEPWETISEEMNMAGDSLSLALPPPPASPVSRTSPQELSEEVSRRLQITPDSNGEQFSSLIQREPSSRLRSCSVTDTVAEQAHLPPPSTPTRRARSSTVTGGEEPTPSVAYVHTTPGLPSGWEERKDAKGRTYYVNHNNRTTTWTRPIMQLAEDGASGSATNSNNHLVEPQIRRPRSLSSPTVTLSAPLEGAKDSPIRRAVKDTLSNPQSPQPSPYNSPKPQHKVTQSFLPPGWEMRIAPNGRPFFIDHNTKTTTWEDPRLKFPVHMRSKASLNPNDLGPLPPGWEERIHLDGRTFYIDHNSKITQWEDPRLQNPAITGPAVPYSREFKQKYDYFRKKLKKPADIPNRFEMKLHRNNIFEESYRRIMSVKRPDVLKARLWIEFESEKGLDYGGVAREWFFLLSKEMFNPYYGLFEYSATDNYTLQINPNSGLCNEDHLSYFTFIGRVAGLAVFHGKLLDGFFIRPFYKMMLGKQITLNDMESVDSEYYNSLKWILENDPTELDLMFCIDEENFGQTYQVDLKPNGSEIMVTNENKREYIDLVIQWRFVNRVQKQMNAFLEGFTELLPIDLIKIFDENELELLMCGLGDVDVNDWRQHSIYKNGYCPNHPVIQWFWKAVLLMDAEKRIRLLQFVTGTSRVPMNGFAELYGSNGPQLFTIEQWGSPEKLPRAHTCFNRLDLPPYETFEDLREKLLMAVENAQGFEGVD

Biological target: PY mutant PLSCR1 (PLSCR1-GFP-PY) (mouse) (UniProt Q9JJ00)
Assay: co-IP; HEK293T co-transfected with NEDD4-2-myc and PLSCR1-GFP (WT or PY mutant); MG132 and CQ for 4 h; immunoprecipitation with anti-GFP, anti-myc or anti-Nedd4-2 on protein G-Sepharose; immunoblot

- binding: binds
Substance: NEDD4-2-myc (WT) (from UniProt Q8CFI0 1-1004) (enzyme)
